PubChem BioAssay AID1259254 | NCATS, 2017
Shown is one part, drawn at random, of about 59,000 reagents. Over the whole deposit, about 1,550 (2.6%) were called active. 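G2 share is only a proxy for re-replication; each gene was hit by three separate siRNAs, and active genes were retested.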 Entries without a mark were called inactive. The numbers tell different reagents against one gene apart. Not all columns of the deposit are shown. Not given: the amount of reagent.

Screen: 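Finding genes that stop cells copying their DNA twice in one cycle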 (primary screen)
System: human HCT116 colorectal cancer cells
Reagent: single siRNA against human genes
Timing: 3 days
Measurement: 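Imaged Hoechst DNA stain sorts each cell into a cycle phase by DNA amount; per plate, G2 fraction set to 0% for non-targeting and 100% for GMNN siRNA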
Reading the numbers: G2 robust z-score: higher = more G2 cells, more excess DNA replication
Call rule: 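An siRNA counts as active if its G2 robust z-score lies at least 5 MADs above the screen median; here such calls match roughly 38% of GMNN control or more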

GPC3 (glypican 3) #1 gave G2 robust z-score 2.53.
After knock-down of GPC3 (glypican 3) #2, the record shows G2 robust z-score 0.99.
After knock-down of GPC3 (glypican 3) #3, the record shows G2 robust z-score 0.494.
After knock-down of SLC16A7 #1, the record shows G2 robust z-score -1.02.
With knock-down of SLC16A7 #2 the results were G2 robust z-score 0.0944.
After knock-down of SLC16A7 #3 the results were G2 robust z-score -1.53.
Against GRID2 (glutamate ionotropic receptor delta type subunit 2) #1, the values are G2 robust z-score 3.79.
With knock-down of GRID2 (glutamate ionotropic receptor delta type subunit 2) #2, the record shows G2 robust z-score -1.28.
For GRID2 (glutamate ionotropic receptor delta type subunit 2) #3 the deposit lists G2 robust z-score 1.53.
Depletion of TXNRD1 (thioredoxin reductase 1) #1 gave: G2 robust z-score 0.0244.
After knock-down of TXNRD1 (thioredoxin reductase 1) #2 the results were G2 robust z-score -0.372.
For TXNRD1 (thioredoxin reductase 1) #3, the values are G2 robust z-score -0.223.

A stretch of the results above, for reference:
GRID2 (glutamate ionotropic receptor delta type subunit 2) #1 — G2 robust z-score: 3.79
GRID2 (glutamate ionotropic receptor delta type subunit 2) #2 — G2 robust z-score: -1.28
GRID2 (glutamate ionotropic receptor delta type subunit 2) #3 — G2 robust z-score: 1.53
TXNRD1 (thioredoxin reductase 1) #1 — G2 robust z-score: 0.0244
TXNRD1 (thioredoxin reductase 1) #2 — G2 robust z-score: -0.372

Next reagents follow:
Knock-down of RP2 (RP2 activator of ARL3 GTPase) #1 gave: G2 robust z-score -0.429.
Silencing of RP2 (RP2 activator of ARL3 GTPase) #2 came out at: G2 robust z-score 3.63.
With knock-down of RP2 (RP2 activator of ARL3 GTPase) #3 the results were G2 robust z-score -0.8.
Against AKAP14 (A-kinase anchoring protein 14) #1, the entry reads G2 robust z-score -1.52.
AKAP14 (A-kinase anchoring protein 14) #2 gave G2 robust z-score 1.77.
Against AKAP14 (A-kinase anchoring protein 14) #3 the deposit lists G2 robust z-score -0.905.
Depletion of TAS1R1 (taste 1 receptor member 1) #1 gave: G2 robust z-score -0.832.
With knock-down of TAS1R1 (taste 1 receptor member 1) #2, the screen gave G2 robust z-score 0.132.
For TAS1R1 (taste 1 receptor member 1) #3, the values are G2 robust z-score 1.24.
For EPB41L4A (erythrocyte membrane protein band 4.1 like 4A) #1, the values are G2 robust z-score -0.92.
With knock-down of EPB41L4A (erythrocyte membrane protein band 4.1 like 4A) #2, the screen gave G2 robust z-score 0.0863.
EPB41L4A (erythrocyte membrane protein band 4.1 like 4A) #3 scored G2 robust z-score -0.52.
With knock-down of C17orf100 (chromosome 17 open reading frame 100) #1, the record shows G2 robust z-score 1.38.
Depletion of C17orf100 (chromosome 17 open reading frame 100) #2 gave: G2 robust z-score -0.657.
For C17orf100 (chromosome 17 open reading frame 100) #3, the values are G2 robust z-score 1.55.
Knock-down of SYNDIG1L (synapse differentiation inducing 1 like) #1 came out at: G2 robust z-score -0.699.
For SYNDIG1L (synapse differentiation inducing 1 like) #2, the values are G2 robust z-score 2.65.
Depletion of SYNDIG1L (synapse differentiation inducing 1 like) #3 gave: G2 robust z-score 2.4.
Against SYNDIG1L (synapse differentiation inducing 1 like) #4 the deposit lists G2 robust z-score -0.994.
Knock-down of SYNDIG1L (synapse differentiation inducing 1 like) #5 gave: G2 robust z-score -0.458.
Against SYNDIG1L (synapse differentiation inducing 1 like) #6 the deposit lists G2 robust z-score 0.485.
